Test: Organic light emitting device with the compound as light emitting dopant: driving voltage and efficiency
Conditions: current density of 10 mA/cm^2; for Driving Voltage: compound as dopant of light emitting layer (8% concentration, host Compound B); for Current Efficiency / Light Emission Wavelength / Power Efficiency: compound as dopant of light emitting layer

| Structure (SMILES) | Driving Voltage [V] | Current Efficiency [cd/A] | Light Emission Wavelength [nm] | Power Efficiency [lm/W] |
| --- | --- | --- | --- | --- |
| c1ccc([Si](c2ccccc2)(c2ccccc2)c2cccc(-c3ccccc3N(c3cccc([Si](c4ccccc4)(c4ccccc4)c4ccccc4)c3)c3cc4c5ccccc5c(N(c5cccc([Si](c6ccccc6)(c6ccccc6)c6ccccc6)c5)c5ccccc5-c5cccc([Si](c6ccccc6)(c6ccccc6)c6ccccc6)c5)cc4c4ccccc34)c2)cc1 [BD12] | 4.37 | 4.21 | 450 | 2.75 |
| c1ccc([Si](c2ccccc2)(c2ccccc2)c2cccc(-c3ccccc3N(c3ccc(-c4cc5c6ccccc6c(-c6ccc(N(c7cccc([Si](c8ccccc8)(c8ccccc8)c8ccccc8)c7)c7ccccc7-c7cccc([Si](c8ccccc8)(c8ccccc8)c8ccccc8)c7)cc6)cc5c5ccccc45)cc3)c3cccc([Si](c4ccccc4)(c4ccccc4)c4ccccc4)c3)c2)cc1 [BD24] | 5.5 | 4.46 | 442 | 2.86 |
| CC(C)c1ccc([Si](c2ccc(C(C)C)cc2)(c2ccc(C(C)C)cc2)c2ccc(N(c3cccc(-c4cccc([Si](c5ccc(C(C)C)cc5)(c5ccc(C(C)C)cc5)c5ccc(C(C)C)cc5)c4)c3)c3cc4c5ccccc5c(N(c5ccc([Si](c6ccc(C(C)C)cc6)(c6ccc(C(C)C)cc6)c6ccc(C(C)C)cc6)cc5)c5cccc(-c6cccc([Si](c7ccc(C(C)C)cc7)(c7ccc(C(C)C)cc7)c7ccc(C(C)C)cc7)c6)c5)cc4c4ccccc34)cc2)cc1 [BD30] | 4.26 | 4.24 | 451 | 2.77 |
| CC(C)c1ccc([Si](c2ccc(C(C)C)cc2)(c2ccc(C(C)C)cc2)c2ccc(N(c3ccc(-c4cc5c6ccccc6c(-c6ccc(N(c7ccc([Si](c8ccc(C(C)C)cc8)(c8ccc(C(C)C)cc8)c8ccc(C(C)C)cc8)cc7)c7cccc(-c8cccc([Si](c9ccc(C(C)C)cc9)(c9ccc(C(C)C)cc9)c9ccc(C(C)C)cc9)c8)c7)cc6)cc5c5ccccc45)cc3)c3cccc(-c4cccc([Si](c5ccc(C(C)C)cc5)(c5ccc(C(C)C)cc5)c5ccc(C(C)C)cc5)c4)c3)cc2)cc1 [BD38] | 5.43 | 4.56 | 443 | 2.89 |
| c1ccc(-c2ccc(N(c3ccccc3)c3cc4c5ccccc5c(N(c5ccccc5)c5ccc(-c6ccccc6)cc5)cc4c4ccccc34)cc2)cc1 [Compound C, reference compound] | 6.23 | 3.09 | 450 | 1.45 |

— US11299503B2, “Compound, coating composition comprising the same, organic light emitting device using the same and method for manufacturing the same” (LG Chem, Ltd., priority 2018, dated 2022)
